Data as given in PubChem BioAssay AID1508597 (Cure First, 2020)

Aim: 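Knock-downs altering ovarian cancer cell survival with or without PARP inhibitor rucaparib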 (primary screen)
System: human ovarian carcinoma lines grown from tumours: OCI-P5x (papillary serous) and OCI-C5x (clear cell)
Reagent: siRNA pool against human genes, 1.25 pmol siRNA per well
Timing: 72 h or 96 h, depending on the cell culture
Challenge: rucaparib 20 µM (about IC30) or vehicle, present until read-out
Detection: 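ATP luminescence measured at 72 or 96 h according to the culture, then normalised and expressed as percent viability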
Reading the numbers: viability, normalised: higher = more viable cells remaining
Hit rule: 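Active when normalised viability falls below 80 percent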
Calls: active = viability under 80%; inactive = viability 80% or more
The deposit covers about 2,100 reagents; below is an unselected part. 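Calls flag viability under 80% in either arm, not effects specific to rucaparib; the reference for percent is not stated.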 Unmarked entries are inactive. Not stated in the record: the 100% reference.

PCDHB11 (protocadherin beta 11), rucaparib or vehicle Rucaparib, cell line OCI-C5x (clear cell), technical replicate 1: viability, normalised (%) = 59.4 (active)
PCDHB11 (protocadherin beta 11), rucaparib or vehicle Rucaparib, cell line OCI-C5x (clear cell), technical replicate 2: viability, normalised (%) = 34.7 (active)
PCDHB11 (protocadherin beta 11), rucaparib or vehicle Rucaparib, cell line OCI-C5x (clear cell), technical replicate 3: viability, normalised (%) = 31.3 (active)
PCDHB11 (protocadherin beta 11), rucaparib or vehicle Rucaparib, cell line OCI-P5x (serous), technical replicate 1: viability, normalised (%) = 50.6 (active)
PCDHB11 (protocadherin beta 11), rucaparib or vehicle Rucaparib, cell line OCI-P5x (serous), technical replicate 2: viability, normalised (%) = 34.3 (active)
PCDHB11 (protocadherin beta 11), rucaparib or vehicle Rucaparib, cell line OCI-P5x (serous), technical replicate 3: viability, normalised (%) = 54.3 (active)
PCDHB11 (protocadherin beta 11), rucaparib or vehicle Vehicle, cell line OCI-C5x (clear cell), technical replicate 1: viability, normalised (%) = 37.1 (active)
PCDHB11 (protocadherin beta 11), rucaparib or vehicle Vehicle, cell line OCI-C5x (clear cell), technical replicate 2: viability, normalised (%) = 41.8 (active)
PCDHB11 (protocadherin beta 11), rucaparib or vehicle Vehicle, cell line OCI-C5x (clear cell), technical replicate 3: viability, normalised (%) = 43.8 (active)
PCDHB11 (protocadherin beta 11), rucaparib or vehicle Vehicle, cell line OCI-P5x (serous), technical replicate 1: viability, normalised (%) = 59.2 (active)
PCDHB11 (protocadherin beta 11), rucaparib or vehicle Vehicle, cell line OCI-P5x (serous), technical replicate 2: viability, normalised (%) = 58.5 (active)
PCDHB11 (protocadherin beta 11), rucaparib or vehicle Vehicle, cell line OCI-P5x (serous), technical replicate 3: viability, normalised (%) = 83.5

2 neighbouring records already listed:
PCDHB11 (protocadherin beta 11), rucaparib or vehicle Rucaparib, cell line OCI-C5x (clear cell), technical replicate 3: viability, normalised (%) = 31.3 (active)
PCDHB11 (protocadherin beta 11), rucaparib or vehicle Rucaparib, cell line OCI-P5x (serous), technical replicate 1: viability, normalised (%) = 50.6 (active)

More entries follow:
INO80B (INO80 complex subunit B), rucaparib or vehicle Rucaparib, cell line OCI-C5x (clear cell), technical replicate 1: viability, normalised (%) = 62.2 (active)
INO80B (INO80 complex subunit B), rucaparib or vehicle Rucaparib, cell line OCI-C5x (clear cell), technical replicate 2: viability, normalised (%) = 53.6 (active)
INO80B (INO80 complex subunit B), rucaparib or vehicle Rucaparib, cell line OCI-C5x (clear cell), technical replicate 3: viability, normalised (%) = 62.4 (active)
INO80B (INO80 complex subunit B), rucaparib or vehicle Rucaparib, cell line OCI-P5x (serous), technical replicate 1: viability, normalised (%) = 52.2 (active)
INO80B (INO80 complex subunit B), rucaparib or vehicle Rucaparib, cell line OCI-P5x (serous), technical replicate 2: viability, normalised (%) = 49.1 (active)
INO80B (INO80 complex subunit B), rucaparib or vehicle Rucaparib, cell line OCI-P5x (serous), technical replicate 3: viability, normalised (%) = 54.5 (active)
INO80B (INO80 complex subunit B), rucaparib or vehicle Vehicle, cell line OCI-C5x (clear cell), technical replicate 1: viability, normalised (%) = 61.8 (active)
INO80B (INO80 complex subunit B), rucaparib or vehicle Vehicle, cell line OCI-C5x (clear cell), technical replicate 2: viability, normalised (%) = 32.3 (active)
INO80B (INO80 complex subunit B), rucaparib or vehicle Vehicle, cell line OCI-C5x (clear cell), technical replicate 3: viability, normalised (%) = 52 (active)
INO80B (INO80 complex subunit B), rucaparib or vehicle Vehicle, cell line OCI-P5x (serous), technical replicate 1: viability, normalised (%) = 82.5
INO80B (INO80 complex subunit B), rucaparib or vehicle Vehicle, cell line OCI-P5x (serous), technical replicate 2: viability, normalised (%) = 87.2
INO80B (INO80 complex subunit B), rucaparib or vehicle Vehicle, cell line OCI-P5x (serous), technical replicate 3: viability, normalised (%) = 83.8
